Results are given in words; binding and its absence hold for the method and conditions named. In cells and extracts the contact can be indirect. Some results given as binding are weak or reduced against the parent protein; the word gives no strength.
Target: EP400 (human (endogenous in MKL-1)) (UniProt Q96L91)
Test: co-IP; MKL-1 cells with Dox-inducible EP400 shRNA treated with DMSO, 111 nM MS023, 12 nM JNJ-64619178 or Dox for 3 d; whole-cell lysates (EBC buffer, 150 mM NaCl, 0.5% NP-40) immunoprecipitated with MAX or EP400 antibody on Protein G Dynabeads at 4°C overnight, washed with 300 mM NaCl EBC buffer; immunoblot

Protein sequences, listed by entry. Tags and fused reporters are not part of them. Lines headed by an entry give the natural chain unless they say otherwise; changes in a name come on top. Chains listed by the source or under a name are the forms on record and can include a tag or linker.
UniProt Q96L91: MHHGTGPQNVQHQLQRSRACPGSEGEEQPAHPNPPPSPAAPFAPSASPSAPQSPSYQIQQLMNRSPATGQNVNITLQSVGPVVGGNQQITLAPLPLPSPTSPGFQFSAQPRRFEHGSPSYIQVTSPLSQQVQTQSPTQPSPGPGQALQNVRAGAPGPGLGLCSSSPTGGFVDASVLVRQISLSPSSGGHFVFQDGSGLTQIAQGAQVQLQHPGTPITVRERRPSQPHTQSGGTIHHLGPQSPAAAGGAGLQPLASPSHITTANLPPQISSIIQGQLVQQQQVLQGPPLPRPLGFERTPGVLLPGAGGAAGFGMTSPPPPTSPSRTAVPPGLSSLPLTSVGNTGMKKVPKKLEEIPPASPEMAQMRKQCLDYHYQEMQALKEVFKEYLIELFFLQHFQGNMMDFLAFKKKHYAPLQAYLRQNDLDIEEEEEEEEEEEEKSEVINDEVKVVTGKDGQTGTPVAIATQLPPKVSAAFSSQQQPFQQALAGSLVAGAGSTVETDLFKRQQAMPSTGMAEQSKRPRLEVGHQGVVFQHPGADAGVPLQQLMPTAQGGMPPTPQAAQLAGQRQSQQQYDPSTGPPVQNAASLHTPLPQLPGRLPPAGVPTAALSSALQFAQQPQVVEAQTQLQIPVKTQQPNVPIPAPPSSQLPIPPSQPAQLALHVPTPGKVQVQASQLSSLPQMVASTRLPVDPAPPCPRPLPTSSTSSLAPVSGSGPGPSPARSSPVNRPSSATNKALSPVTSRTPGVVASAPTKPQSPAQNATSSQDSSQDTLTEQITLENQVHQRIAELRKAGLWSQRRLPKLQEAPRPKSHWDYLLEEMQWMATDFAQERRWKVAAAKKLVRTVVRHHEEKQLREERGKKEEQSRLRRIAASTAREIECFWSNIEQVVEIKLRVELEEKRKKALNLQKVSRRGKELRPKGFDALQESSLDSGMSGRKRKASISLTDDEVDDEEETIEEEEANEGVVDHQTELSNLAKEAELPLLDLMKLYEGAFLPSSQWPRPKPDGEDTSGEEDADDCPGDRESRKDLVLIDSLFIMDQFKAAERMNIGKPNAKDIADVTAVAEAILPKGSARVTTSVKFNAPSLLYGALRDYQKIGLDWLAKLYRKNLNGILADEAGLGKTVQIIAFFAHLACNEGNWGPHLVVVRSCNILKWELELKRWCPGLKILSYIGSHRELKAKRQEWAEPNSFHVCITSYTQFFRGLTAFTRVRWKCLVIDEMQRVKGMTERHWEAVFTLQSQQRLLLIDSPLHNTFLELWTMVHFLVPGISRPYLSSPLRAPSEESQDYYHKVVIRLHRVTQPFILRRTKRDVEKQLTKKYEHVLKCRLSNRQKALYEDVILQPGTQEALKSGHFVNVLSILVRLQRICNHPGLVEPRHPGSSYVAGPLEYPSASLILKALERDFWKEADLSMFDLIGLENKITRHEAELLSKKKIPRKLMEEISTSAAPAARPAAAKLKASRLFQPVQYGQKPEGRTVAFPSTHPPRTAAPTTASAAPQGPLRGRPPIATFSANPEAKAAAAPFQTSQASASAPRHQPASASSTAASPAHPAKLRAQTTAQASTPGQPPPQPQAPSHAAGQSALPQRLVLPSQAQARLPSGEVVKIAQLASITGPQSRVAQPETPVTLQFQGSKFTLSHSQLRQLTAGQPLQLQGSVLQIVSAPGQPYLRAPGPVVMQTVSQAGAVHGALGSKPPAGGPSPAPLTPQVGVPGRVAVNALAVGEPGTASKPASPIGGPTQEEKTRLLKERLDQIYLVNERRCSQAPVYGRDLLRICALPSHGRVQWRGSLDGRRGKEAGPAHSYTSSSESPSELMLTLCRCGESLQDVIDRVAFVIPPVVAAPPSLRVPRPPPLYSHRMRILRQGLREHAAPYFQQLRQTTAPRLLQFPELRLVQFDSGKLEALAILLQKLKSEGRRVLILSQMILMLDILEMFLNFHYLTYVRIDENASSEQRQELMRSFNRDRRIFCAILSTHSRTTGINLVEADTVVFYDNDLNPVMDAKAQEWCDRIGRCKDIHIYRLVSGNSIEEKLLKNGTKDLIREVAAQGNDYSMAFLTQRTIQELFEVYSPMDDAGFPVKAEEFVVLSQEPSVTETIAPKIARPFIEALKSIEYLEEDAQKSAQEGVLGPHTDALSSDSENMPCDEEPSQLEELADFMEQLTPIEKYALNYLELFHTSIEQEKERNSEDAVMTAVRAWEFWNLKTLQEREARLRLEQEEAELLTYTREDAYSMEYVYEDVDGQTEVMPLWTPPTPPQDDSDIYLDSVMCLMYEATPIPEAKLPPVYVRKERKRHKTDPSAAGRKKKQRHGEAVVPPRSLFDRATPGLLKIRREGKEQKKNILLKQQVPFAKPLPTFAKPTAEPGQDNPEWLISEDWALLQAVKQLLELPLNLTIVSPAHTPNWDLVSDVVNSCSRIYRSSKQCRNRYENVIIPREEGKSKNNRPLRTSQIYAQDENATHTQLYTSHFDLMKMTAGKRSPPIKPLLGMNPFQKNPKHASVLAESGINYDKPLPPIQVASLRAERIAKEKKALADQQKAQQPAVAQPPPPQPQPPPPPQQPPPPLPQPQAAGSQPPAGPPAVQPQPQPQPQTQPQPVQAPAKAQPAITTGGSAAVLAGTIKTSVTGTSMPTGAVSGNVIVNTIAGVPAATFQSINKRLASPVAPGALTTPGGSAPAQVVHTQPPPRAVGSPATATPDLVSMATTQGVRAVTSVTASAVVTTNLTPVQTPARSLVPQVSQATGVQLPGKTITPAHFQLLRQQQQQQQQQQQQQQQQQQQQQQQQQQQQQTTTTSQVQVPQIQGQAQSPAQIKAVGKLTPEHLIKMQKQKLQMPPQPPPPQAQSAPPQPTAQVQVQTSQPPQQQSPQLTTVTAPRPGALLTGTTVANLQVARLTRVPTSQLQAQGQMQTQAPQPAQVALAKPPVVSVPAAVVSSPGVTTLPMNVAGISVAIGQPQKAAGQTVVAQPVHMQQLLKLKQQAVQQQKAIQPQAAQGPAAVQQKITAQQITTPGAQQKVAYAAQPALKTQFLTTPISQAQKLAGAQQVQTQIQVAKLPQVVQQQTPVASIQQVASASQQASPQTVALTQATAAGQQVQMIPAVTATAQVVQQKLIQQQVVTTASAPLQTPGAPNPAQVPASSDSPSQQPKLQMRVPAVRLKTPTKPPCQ
Tip60β (spliced, exon 5-skipped isoform of Tip60/KAT5) (Q92993-2, form named): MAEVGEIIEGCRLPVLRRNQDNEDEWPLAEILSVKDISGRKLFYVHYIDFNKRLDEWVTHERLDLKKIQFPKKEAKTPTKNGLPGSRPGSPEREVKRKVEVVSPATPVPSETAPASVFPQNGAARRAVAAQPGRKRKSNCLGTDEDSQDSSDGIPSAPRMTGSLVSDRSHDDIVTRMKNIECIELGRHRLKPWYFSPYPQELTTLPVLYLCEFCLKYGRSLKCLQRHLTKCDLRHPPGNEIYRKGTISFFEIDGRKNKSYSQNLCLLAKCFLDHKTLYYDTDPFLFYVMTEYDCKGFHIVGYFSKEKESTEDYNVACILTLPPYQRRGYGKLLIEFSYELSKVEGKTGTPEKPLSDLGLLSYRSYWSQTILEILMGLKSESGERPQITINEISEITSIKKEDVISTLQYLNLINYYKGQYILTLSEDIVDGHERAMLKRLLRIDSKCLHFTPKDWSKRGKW

binding: binds
Substance: Tip60β (spliced, exon 5-skipped isoform of Tip60/KAT5) (from UniProt Q92993-2 1-461)

From PMC12373721
